Among the data in the supplement of paper PMC10849652 are log2 fold change values, retold here.

Protein sequences, listed by entry. Tags and fused reporters are not part of them. Lines headed by an entry give the natural chain unless they say otherwise; changes in a name come on top.
UniProt Q8IVI9: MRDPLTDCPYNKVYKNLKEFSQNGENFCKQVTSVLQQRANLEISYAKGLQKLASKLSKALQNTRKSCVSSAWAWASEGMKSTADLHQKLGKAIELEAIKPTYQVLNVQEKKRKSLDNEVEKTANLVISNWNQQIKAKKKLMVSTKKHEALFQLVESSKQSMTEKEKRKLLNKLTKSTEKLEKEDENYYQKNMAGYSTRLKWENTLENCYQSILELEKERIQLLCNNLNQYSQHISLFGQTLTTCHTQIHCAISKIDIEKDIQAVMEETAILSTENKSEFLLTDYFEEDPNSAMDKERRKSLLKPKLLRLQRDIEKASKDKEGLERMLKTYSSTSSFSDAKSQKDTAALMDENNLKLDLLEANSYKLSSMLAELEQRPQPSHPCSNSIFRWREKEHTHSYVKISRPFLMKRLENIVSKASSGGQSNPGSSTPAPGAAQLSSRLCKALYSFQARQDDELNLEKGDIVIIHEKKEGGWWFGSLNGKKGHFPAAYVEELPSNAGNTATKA
UniProt O75052: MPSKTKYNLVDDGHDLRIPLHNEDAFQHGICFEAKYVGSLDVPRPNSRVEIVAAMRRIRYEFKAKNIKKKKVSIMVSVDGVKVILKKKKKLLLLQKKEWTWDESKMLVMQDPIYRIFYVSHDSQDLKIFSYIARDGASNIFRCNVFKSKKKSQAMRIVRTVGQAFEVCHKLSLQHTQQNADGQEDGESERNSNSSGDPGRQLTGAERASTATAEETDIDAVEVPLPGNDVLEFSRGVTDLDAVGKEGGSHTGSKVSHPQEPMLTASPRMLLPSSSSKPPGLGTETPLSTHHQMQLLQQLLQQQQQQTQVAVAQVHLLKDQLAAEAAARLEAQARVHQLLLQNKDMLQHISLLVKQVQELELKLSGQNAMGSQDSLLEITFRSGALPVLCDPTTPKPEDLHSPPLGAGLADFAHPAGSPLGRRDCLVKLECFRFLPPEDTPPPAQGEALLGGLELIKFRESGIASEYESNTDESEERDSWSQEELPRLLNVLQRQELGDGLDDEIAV
UniProt P13056: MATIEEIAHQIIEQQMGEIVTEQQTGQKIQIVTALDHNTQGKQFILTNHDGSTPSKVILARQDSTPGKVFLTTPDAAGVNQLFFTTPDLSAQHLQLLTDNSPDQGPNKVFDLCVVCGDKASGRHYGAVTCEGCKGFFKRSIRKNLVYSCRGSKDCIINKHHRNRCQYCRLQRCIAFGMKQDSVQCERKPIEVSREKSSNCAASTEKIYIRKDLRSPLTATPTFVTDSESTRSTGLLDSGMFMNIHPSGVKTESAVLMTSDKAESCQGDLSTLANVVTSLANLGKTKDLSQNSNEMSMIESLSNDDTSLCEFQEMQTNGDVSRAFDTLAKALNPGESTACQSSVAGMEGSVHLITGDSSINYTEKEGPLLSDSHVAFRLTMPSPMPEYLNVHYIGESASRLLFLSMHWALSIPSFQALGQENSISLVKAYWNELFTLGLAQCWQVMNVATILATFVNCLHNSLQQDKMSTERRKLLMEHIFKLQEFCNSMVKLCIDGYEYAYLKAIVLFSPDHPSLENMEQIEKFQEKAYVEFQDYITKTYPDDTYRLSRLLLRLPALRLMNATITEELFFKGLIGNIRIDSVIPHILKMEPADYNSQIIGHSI
UniProt P48645: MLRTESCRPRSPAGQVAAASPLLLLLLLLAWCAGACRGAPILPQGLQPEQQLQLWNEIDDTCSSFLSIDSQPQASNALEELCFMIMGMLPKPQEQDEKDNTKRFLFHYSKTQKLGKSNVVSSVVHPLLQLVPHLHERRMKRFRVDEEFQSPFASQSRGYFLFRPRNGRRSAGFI
UniProt Q6ZVK8: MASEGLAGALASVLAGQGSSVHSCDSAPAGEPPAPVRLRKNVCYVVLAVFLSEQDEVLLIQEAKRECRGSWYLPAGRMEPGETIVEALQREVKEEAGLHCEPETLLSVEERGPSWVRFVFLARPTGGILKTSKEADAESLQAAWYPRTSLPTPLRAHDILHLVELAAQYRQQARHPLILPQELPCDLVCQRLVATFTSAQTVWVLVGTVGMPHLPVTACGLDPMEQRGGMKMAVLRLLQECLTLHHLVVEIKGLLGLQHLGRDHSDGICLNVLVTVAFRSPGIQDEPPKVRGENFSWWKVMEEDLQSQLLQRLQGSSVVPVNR
UniProt O60936: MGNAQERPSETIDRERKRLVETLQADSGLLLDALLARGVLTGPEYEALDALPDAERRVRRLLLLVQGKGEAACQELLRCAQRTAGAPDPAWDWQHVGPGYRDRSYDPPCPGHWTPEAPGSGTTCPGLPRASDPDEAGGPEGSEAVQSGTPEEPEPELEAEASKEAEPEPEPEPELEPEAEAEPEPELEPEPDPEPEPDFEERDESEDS
UniProt O60361, whole entry, looked up: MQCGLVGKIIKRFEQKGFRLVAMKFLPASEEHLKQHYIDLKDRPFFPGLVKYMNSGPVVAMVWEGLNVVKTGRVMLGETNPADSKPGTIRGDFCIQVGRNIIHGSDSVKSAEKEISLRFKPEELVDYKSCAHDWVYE

This is one part of the list.

Test in all cases: log2 fold change, soluble protein after heating vs DMSO (PISA); higher = thermal stabilisation; K562 lysate, 10 uM; active = over 0.2 and 3.5 SD of the protein, either way, in both replicates (recomputed)
Compound in one assay: CCCS(=O)(=O)Nc1ccc(F)c(C(=O)c2c[nH]c3ncc(-c4ccc(Cl)cc4)cc23)c1F [vemurafenib]
In a few lines:
(§1)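 Quantification was by TMTpro 16plex LC-MS/MS with equalised channel sums, applied to the supernatant after 21,000xg for 90 min. Samples were crude K562 extract at 1 mg/mL protein in PBS pH 7.4 with 1 mM MgCl2, treated with 10 μM compound for 30 min, heated for 3 min across 48°C-58°C, pooled and brought to 0.5% NP-40 at 4°C. Values are log-two fold changes in thermal stability relative to solvent controls, from duplicates.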

Compound in assay [1]: CCCS(=O)(=O)Nc1ccc(F)c(C(=O)c2c[nH]c3ncc(Cl)cc23)c1F
The method in brief: as §1

Compound in a further assay: CCN(CCCOc1ccc2c(Nc3cc(CC(=O)Nc4cccc(F)c4)[nH]n3)ncnc2c1)CCOP(=O)(O)O [barasertib]
The method in brief:
as §1

Compound in assay [2]: CC[C@@H]1C(=O)N(C)c2cnc(Nc3ccc(C(=O)NC4CCN(C)CC4)cc3OC)nc2N1C1CCCC1
The method in brief:
as §1

Compound in another assay: CC[C@@H]1C(=O)N(C)c2cnc(Nc3ccc(C(=O)N[C@H]4CC[C@H](N5CCN(CC6CC6)CC5)CC4)cc3OC)nc2N1C(C)C [volasertib]
The method in brief:
as §1

Compound in assay [3]: CCn1c(C(=O)N(C2CC2)C2CC2)cc2c3c(ncn3C)c(Nc3cc(C)n(C)n3)nc21
The method in brief:
as §1

Compound in assay [4]: CCn1cc(-c2ccnc3[nH]c(-c4cccc(CN(C)C)c4)cc23)c(-c2ccc(NC(=O)N(C)C)cc2)n1
The method in brief: as §1

Compound in assay [5]: CN1CCC(CNc2ccc3ncc(-c4cccc(OC(F)(F)F)c4)n3n2)CC1
In a few lines:
as §1

Compound in the next assay: CN1CCN(CCOc2cc(OC3CCOCC3)c3c(Nc4c(Cl)ccc5c4OCO5)ncnc3c2)CC1 [saracatinib]
In a few lines: as §1

Compound in a further assay: CN1CCN(c2nc(C3=C(c4c[nH]c5ccccc45)C(=O)NC3=O)c3ccccc3n2)CC1 [sotrastaurin]
In a few lines: as §1

Compound in another assay: CN1CC[C@H](c2c(O)cc(O)c3c(=O)cc(-c4ccccc4Cl)oc23)[C@H](O)C1 [alvocidib]
In a few lines: as §1

Compound in another assay: CN1CCc2c(c3ccccc3n2Cc2ccc(C(=O)NO)cc2)C1 [Tubastatin A]
In a few lines: as §1

Compound in assay [6]: CNC(=O)C1=CC=CC=C1NC2=NC(=NC=C2Cl)NC3=C(C=C(C=C3)N4CCOCC4)OC
The method in brief: as §1

Compound in the next assay: CNC(=O)c1ccc(Nc2ncc(C(F)(F)F)c(NCc3nccnc3N(C)S(C)(=O)=O)n2)cc1 [defactinib]
The method in brief:
as §1

Compound in assay [7]: CNc1nc(-c2ccc3c(N)n[nH]c3c2)cc(N2C[C@@H](C(=O)NC3CCCCC3)CC[C@H]2C)n1
The method in brief: as §1

Compound in a further assay: COC(=O)N[C@@H](C)CNc1nccc(-c2cn(C(C)C)nc2-c2cc(Cl)cc(NS(C)(=O)=O)c2F)n1 [encorafenib]
In a few lines: as §1

Compound in assay [8]: COC(=O)[C@H](CCSC)NC(=O)C1=C(C=C(C=C1)NC[C@H](CS)N)C2=CC=CC=C2
The method in brief: as §1

Compound in another assay: COc1cc(Nc2ncc3c(n2)-c2ccc(Cl)cc2C(c2c(F)cccc2OC)=NC3)ccc1C(=O)O [alisertib]
In a few lines: as §1

Compound in assay [9]: COc1cc2nc(-c3cc(F)ccc3O)nc(N[C@@H]3CNC[C@H]3C(C)(C)O)c2cc1OC
In a few lines: as §1

Compound in a further assay: COc1cc2ncnc(Nc3ccc(F)c(Cl)c3)c2cc1OCCCN1CCOCC1 [gefitinib]
In a few lines:
as §1

Regarding NOSTRIN (UniProt Q8IVI9), the log2 fold change with vemurafenib is inactive: 0.091; in assay [1], inactive: 0.024; in the assay with barasertib, inactive: 0.085; in assay [2], inactive: -0.178; with volasertib, inactive: -0.029; in assay [3] it was inactive: -0.026. In addition, the log2 fold change in [4] is inactive: 0.025; in assay [5], inactive: -0.094; with saracatinib, inactive: -0.001; in the assay with sotrastaurin, inactive: -0.054; with alvocidib, inactive: -0.009; with Tubastatin A, active: -0.35. Further, the log2 fold change in assay [6] was inactive: 0.027; with defactinib, inactive: 0.07; in assay [7], inactive: 0.061; in the assay with encorafenib it was inactive: -0.112; in assay [8], inactive: 0.11; with alisertib, inactive: -0.019. For the same target, the log2 fold change in assay [9] was inactive: 0; with gefitinib, inactive: 0.004.
As to NOS1AP (UniProt O75052), the log2 fold change was inactive: -0.019 with vemurafenib; inactive: -0.034 in [1]; inactive: 0.074 in the assay with barasertib; inactive: -0.202 in assay [2]; inactive: 0.018 in the assay with volasertib; inactive: -0.211 in assay [3]. For the same target, the log2 fold change was inactive: -0.239 in [4]; inactive: 0.214 in [5]; inactive: 0.117 with sotrastaurin; inactive: -0.065 with alvocidib; inactive: 0.143 with Tubastatin A; inactive: -0.007 in [6]. In addition, the log2 fold change with defactinib is inactive: -0.307; with encorafenib, inactive: 0.007; in [8], inactive: 0.111; with alisertib, inactive: 0.155; in assay [9], inactive: 0.062; with gefitinib it was inactive: -0.032.
Consider NR2C1 (UniProt P13056), for which the log2 fold change with vemurafenib is inactive: 0.085; with barasertib, inactive: -0.02; in [4], inactive: -0.027; in [5], inactive: 0.231; with sotrastaurin, inactive: -0.069; with alvocidib, inactive: -0.065. For the same target, the results for the log2 fold change with defactinib, with alisertib and with gefitinib were inactive: 0.03, inactive: 0.019 and inactive: 0.017, respectively.
Consider NMU (UniProt P48645), for which the log2 fold change is inactive: -0.068 with vemurafenib; inactive: 0.012 in assay [2]; inactive: 0.095 in [4]; inactive: -0.03 in assay [5]; inactive: 0.054 in the assay with sotrastaurin; inactive: 0.077 with alvocidib. Also, the log2 fold change in [6] is inactive: 0.04; with defactinib, inactive: 0.04; with encorafenib it was inactive: -0.275; in [8] it was inactive: 0.032.
For NUDT18 (UniProt Q6ZVK8), the log2 fold change in the assay with vemurafenib was inactive: -0.025; in assay [2] it was inactive: 0.039; in [3] it was inactive: -0.391; in assay [4] it was inactive: -0.038; in [5], inactive: 0.051; in the assay with sotrastaurin, inactive: -0.064. The log2 fold change with alvocidib is inactive: -0.068; with Tubastatin A, inactive: 0.324; in assay [6], inactive: -0.08; with defactinib, inactive: 0.004; with encorafenib, inactive: -0.054; in assay [8] it was inactive: 0.198.
NOL3 isoform 3 (UniProt O60936): the log2 fold change with vemurafenib was inactive: -0.04; in assay [1], inactive: -0.002; with volasertib it was inactive: 0.037; in assay [3], inactive: -0.101; with saracatinib, inactive: -0.09; in the assay with sotrastaurin it was inactive: -0.048. Besides, the log2 fold change in the assay with Tubastatin A was inactive: -0.033; in assay [6], inactive: -0.061; with defactinib it was inactive: 0.165; in assay [7], inactive: -0.345; with alisertib, inactive: -0.007; in [9] it was inactive: 0.031. Moreover, the log2 fold change with gefitinib was inactive: -0.138.
Consider NME2P1 (UniProt O60361), for which the log2 fold change in the assay with vemurafenib was inactive: 0.256; in [1], inactive: -0.007; in the assay with barasertib, inactive: 0.027; with volasertib it was inactive: 0.046; in assay [3], inactive: -0.173; in assay [4] it was inactive: -0.306. Moreover, the log2 fold change in [5] is inactive: 0.14; with saracatinib, inactive: 0.048; with sotrastaurin, inactive: 0.059; with alvocidib, inactive: -0.184; with Tubastatin A, inactive: 0.157; in assay [6], inactive: -0.148. Moreover, the log2 fold change with defactinib was inactive: -0.081; in [7], inactive: 0.268; in the assay with alisertib, inactive: 0.119; in assay [9] it was inactive: 0.04; with gefitinib it was inactive: 0.011.
